The list shows a part of the results. Further columns of the screen follow, without active or inactive calls. The list favours compounds with an active or inconclusive main result. Potencies come from curve fits of mixed quality, noted in brackets.
Assay: qHTS Assay for Lipid Storage Modulators in Drosophila S3 Cells;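 as to cell number change: cells counted by Cell Tracker Red CMTPX staining in the red channel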
Conditions: BODIPY lipid droplet fluorescence, 18-24 h; for cell number change: measured here: cell count max response, cells fed with added oleic acid
Outline: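 Drosophila S3 cells got compounds at several concentrations plus oleic acid (400 uM solution). Laser-scanning cytometry with 488 nm excitation read lipid droplets at 500-530 nm and cells at 575-640 nm. Percent activity was relative to 20 uM Triacsin C.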

[1] = measured here: lipid fluorescence (Fed channel) AC50, cells fed with added oleic acid
[2] = measured here: cell number channel AC50, cells fed with added oleic acid

Structure (SMILES)	cell number change [%]	AC50 [1]	AC50 [2]
CCOC(=O)c1[nH]c2cc3c(cc2c1NC(=O)CN1CCC2(CC1)OCCO2)OCO3	18.4	29.1 µM [rising, single point]	–
O=C(CCN1C(=O)C2C3C=CC(C4CC34)C2C1=O)OCC(=O)c1ccccc1 (stereo not given)	-18.7	29.1 µM [falling, single point]	–
CCN(c1ccc(OC)cc1)S(=O)(=O)c1nnc(NC(=O)c2ccc(C)cc2)s1	-2.31	–	–
CCCS(=O)(=O)N1CCN=C1SCc1ccc(F)cc1	-19.1	6.51 µM [falling, single point]	–
CSc1nnnn1-c1ccc(C)c(Cl)c1	6.51	14.6 µM [rising, partial curve, poor fit]	–
Brc1ccc(OCCn2ccnc2)cc1	7.86	–	1.84 µM [rising, single point]
c1ccc(C2Nc3ccccc3Oc3ccccc32)cc1 (stereo not given)	-36.4	29.1 µM [falling, single point]	29.1 µM [falling, single point]
COc1ccc(CNC(=O)Cn2cc([N+](=O)[O-])nc2C)cc1	-2.92	–	6.51 µM [rising, single point]
COc1ccc(C2CC(c3ccc(Br)cc3)=NN2C(=O)c2cccnc2)cc1 (stereo not given)	-23.2	20.6 µM [falling, single point]	–
CN(Cc1ccccc1C#N)S(=O)(=O)c1cccs1	13.5	–	–
Cc1ccc(C(=O)Nc2ccnc(-c3cccnc3)n2)cc1	–	6.51 µM [falling, partial curve]	–
Cc1ccc(CC2CC(=O)N(c3ccc(C)cc3)C2=O)cc1 (stereo not given)	-25.3	–	1.16 µM [rising, single point]
CSc1cccc(NC(=O)C2C3C=CC4(O3)C2C(=O)N(CCN2CCOCC2)C4C(=O)NC2CCCCC2)c1 (stereo not given)	-4.84	3.66 µM [rising, full curve, poor fit]	–
O=[N+]([O-])c1cc(Br)c(OCc2nnc(-c3ccccc3)o2)c(Br)c1	25	–	–
Cc1nc2scc(C)n2c(=O)c1S(=O)(=O)Nc1ccc(N2CCOCC2)cc1	14.9	23.1 µM [rising, single point]	–
CC(C)OCCCN1CN(S(=O)(=O)c2cccs2)c2nc3ccccc3nc21	–	–	0.411 µM [rising, full curve]
COc1ccc(NC(=S)N(CCc2c(C)[nH]c3ccc(C)cc23)Cc2ccco2)cc1	-7.09	1.3 µM [rising, full curve]	–
Cc1cc(C)nc(SCCS(=O)Cc2ccc(Cl)cc2)n1 (stereo not given)	–	10.3 µM [rising, partial curve]	–
CNC(=S)Nc1ccc(C)cc1	-12.1	0.291 µM [falling, full curve, poor fit]	–
COc1ccc(/C=C(/NC(=O)c2ccc(OC)c(OC)c2)C(=O)NCCCn2ccnc2)cc1	3.36	0.231 µM [rising, full curve]	–

Single records, as listed above:
CN(Cc1ccccc1C#N)S(=O)(=O)c1cccs1 in the list: cell number change [%]: 13.5
Cc1cc(C)nc(SCCS(=O)Cc2ccc(Cl)cc2)n1 (stereo not given) in the list: AC50 [1]: 10.3 µM [rising, partial curve]
O=[N+]([O-])c1cc(Br)c(OCc2nnc(-c3ccccc3)o2)c(Br)c1 in the list: cell number change [%]: 25

Following part:

Structure (SMILES)	cell number change [%]	AC50 [1]	AC50 [2]
CCOC(=O)CCC(=O)c1c(C)oc2ccc(OC)cc12	83.6	–	16.4 µM [rising, single point]
COCCCN1C(=O)c2ccc(C(=O)OCC(=O)NCCc3ccccc3)cc2C1=O	-112	5.8 µM [falling, single point]	23.1 µM [falling, partial curve]
O=S(=O)(c1ccccc1)N1CCN(c2ncccn2)CC1	22.8	1.84 µM [rising, partial curve]	–
Cc1onc(-c2c(F)cccc2Cl)c1C(=O)N1CCN(c2ncccn2)CC1	-5.16	–	0.00461 µM [falling, full curve, poor fit]
O=c1c(/C=N/N2CCOCC2)c(C(F)(F)F)[nH]n1-c1ccccc1	-10.9	5.17 µM [falling, single point]	–
CC/C(=N/Nc1ccccc1C)c1cnnc(SC)n1	-24.8	29.1 µM [falling, single point]	–
CCC1(CC)C(=O)NC(=O)NC1=NCCc1ccc(O)cc1	6.66	0.517 µM [falling, single point]	0.00461 µM [falling, full curve, poor fit]
O=[N+]([O-])c1ccc2nc(-c3ccccc3)[nH]c2c1	20.8	0.00461 µM [rising, full curve, poor fit]	–
N#Cc1cn(CCOC(=O)c2cccc(C(F)(F)F)c2)c(=O)[nH]c1=O	24.5	–	–
O=C(NC(=S)Nc1ccc(Br)cc1)C1CCC1	30.6	16.4 µM [rising, single point]	0.103 µM [rising, full curve, poor fit]
Cc1cc(C)c2c3c(sc2n1)C(=O)N(Cc1ccccc1)CC(=O)N3	12.1	–	–
O=[N+]([O-])c1cccc(S(=O)(=O)NCC2CCCO2)c1 (stereo not given)	8.89	29.1 µM [rising, single point]	–
Nc1nc(-c2cccnc2)nn1C(=O)c1ccc(Cl)cc1	-5.19	–	–
CSc1nc(-c2ccc(C)cc2)nc(N)c1C#N	-31	32.6 µM [falling, single point]	29.1 µM [falling, single point]
O=C1Cn2c(nc3ccccc32)N1c1cccc(C(F)(F)F)c1	12.5	–	–
CN1CCN(c2ccc(NC(=O)c3ccc(C#N)cc3F)cc2Cl)CC1	18.8	6.51 µM [rising, single point]	0.0651 µM [rising, full curve, poor fit]
Cc1ccc(NC(=O)CN2C(=O)S/C(=C\c3ccc(OCC(=O)O)c(Br)c3)C2=O)cc1	-18.8	–	–
CCC(C)OC(=O)C1=C(C)NC(=O)CC1c1ccccc1OC (stereo not given)	27.9	29.1 µM [rising, single point]	–
CC1([N+](=O)[O-])COC2(OC1)C(=O)Nc1ccccc12 (stereo not given)	16.5	14.6 µM [rising, partial curve, poor fit]	–
CCCCN(C(=O)CCCc1nc2ccccc2c(=O)[nH]1)c1c(N)n(CC(C)C)c(=O)[nH]c1=O	-27.5	0.0731 µM [falling, full curve, poor fit]	–

Source: PubChem BioAssay AID2685 (National Center for Advancing Translational Sciences (NCATS), 2010)
